Taken from: PubChem BioAssay AID1259266 (Sanger Institute, 2017)
Test: 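Find knock-downs that kill LS123 cells or act with anchor drugs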 (primary screen). System: LS123 human colorectal cancer cells. Reagents: siRNA pool against human genes. Treatment: anchor drugs BYL719 (1 µM), cetuximab (5 µg/ml) or trametinib (10 nM), each chosen to barely slow growth alone; DMSO vehicle as the drug-free arm. Read-out: 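Replicate-averaged viability scaled to non-targeting pools, robust z-score for siRNA alone, and a synergy score per anchor drug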. Scale: robust z-score, knock-down alone: higher = more cells surviving after knock-down. Hit rule: 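Essential when the robust z-score of the knock-down alone is below -3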. Calls: active = essential (knock-down alone cuts viability); inactive = no change.
This is one part, drawn at random, of 794 reagents. 16 of them (2%) were called active. 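Calls reflect knock-down alone, not drug synergy; viability seems capped at 1 and z-scores at 0.585.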 Unmarked entries are inactive. Reagents against one gene are numbered here. Further read-outs or replicates are left out here. No sequences are given here. The record does not give: the amount of reagent, the time to read-out.

The first 2 entries as a preview:
{"gene knocked down": "MAP3K4 (mitogen-activated protein kinase kinase kinase 4)", "reagent": 1, "robust z-score, knock-down alone": 0.585}
{"gene knocked down": "MARK1 (microtubule affinity regulating kinase 1)", "reagent": 1, "robust z-score, knock-down alone": 0.585}

The list itself, repeating the preview:
{"gene knocked down": "MAP3K4 (mitogen-activated protein kinase kinase kinase 4)", "reagent": 1, "robust z-score, knock-down alone": 0.585}
{"gene knocked down": "MARK1 (microtubule affinity regulating kinase 1)", "reagent": 1, "robust z-score, knock-down alone": 0.585}
{"gene knocked down": "ILK (integrin linked kinase)", "reagent": 1, "robust z-score, knock-down alone": 0.585}
{"gene knocked down": "ILK (integrin linked kinase)", "reagent": 2, "robust z-score, knock-down alone": 0.585}
{"gene knocked down": "DDR1 (discoidin domain receptor tyrosine kinase 1)", "reagent": 1, "robust z-score, knock-down alone": 0.585}
{"gene knocked down": "MASTL (microtubule associated serine/threonine kinase like)", "reagent": 1, "robust z-score, knock-down alone": 0.585}
{"gene knocked down": "PHKB (phosphorylase kinase regulatory subunit beta)", "reagent": 1, "robust z-score, knock-down alone": 0.585}
{"gene knocked down": "NTRK2 (neurotrophic receptor tyrosine kinase 2)", "reagent": 1, "robust z-score, knock-down alone": 0.585}
{"gene knocked down": "CSNK1G2 (casein kinase 1 gamma 2)", "reagent": 1, "robust z-score, knock-down alone": 0.117}
{"gene knocked down": "CLK4 (CDC like kinase 4)", "reagent": 1, "robust z-score, knock-down alone": 0.585}
{"gene knocked down": "PKN1 (protein kinase N1)", "reagent": 1, "robust z-score, knock-down alone": 0.585}
{"gene knocked down": "FXN (frataxin)", "reagent": 1, "robust z-score, knock-down alone": 0.585}
{"gene knocked down": "PTK6 (protein tyrosine kinase 6)", "reagent": 1, "robust z-score, knock-down alone": 0.0559}
{"gene knocked down": "RFK (riboflavin kinase)", "reagent": 1, "robust z-score, knock-down alone": 0.585}
{"gene knocked down": "SF3B1 (splicing factor 3b subunit 1)", "reagent": 1, "robust z-score, knock-down alone": -2.89}
{"gene knocked down": "MAK (male germ cell associated kinase)", "reagent": 1, "robust z-score, knock-down alone": -0.662}
{"gene knocked down": "FGFR4 (fibroblast growth factor receptor 4)", "reagent": 1, "robust z-score, knock-down alone": 0.585}
{"gene knocked down": "SRMS", "reagent": 1, "robust z-score, knock-down alone": -1.64}
{"gene knocked down": "TAOK3 (TAO kinase 3)", "reagent": 1, "robust z-score, knock-down alone": 0.585}
{"gene knocked down": "LYN (LYN proto-oncogene, Src family tyrosine kinase)", "reagent": 1, "robust z-score, knock-down alone": 0.585}
{"gene knocked down": "NADK (NAD kinase)", "reagent": 1, "robust z-score, knock-down alone": -0.814}
{"gene knocked down": "MAPKAPK2 (MAPK activated protein kinase 2)", "reagent": 1, "robust z-score, knock-down alone": 0.585}
{"gene knocked down": "SIK3 (SIK family kinase 3)", "reagent": 1, "robust z-score, knock-down alone": 0.585}
{"gene knocked down": "CAMK2D (calcium/calmodulin dependent protein kinase II delta)", "reagent": 1, "robust z-score, knock-down alone": 0.585}
{"gene knocked down": "PI4K2A (phosphatidylinositol 4-kinase type 2 alpha)", "reagent": 1, "robust z-score, knock-down alone": 0.585}
{"gene knocked down": "MARK4 (microtubule affinity regulating kinase 4)", "reagent": 1, "robust z-score, knock-down alone": -1.06}
{"gene knocked down": "CDK10 (cyclin dependent kinase 10)", "reagent": 1, "robust z-score, knock-down alone": 0.585}
{"gene knocked down": "CDC73 (cell division cycle 73)", "reagent": 1, "robust z-score, knock-down alone": -1.91}
{"gene knocked down": "MED24 (mediator complex subunit 24)", "reagent": 1, "robust z-score, knock-down alone": 0.585}
{"gene knocked down": "EPHA1 (EPH receptor A1)", "reagent": 1, "robust z-score, knock-down alone": 0.585}
{"gene knocked down": "ELF3 (E74 like ETS transcription factor 3)", "reagent": 1, "robust z-score, knock-down alone": 0.585}
{"gene knocked down": "TYK2 (tyrosine kinase 2)", "reagent": 1, "robust z-score, knock-down alone": 0.585}
{"gene knocked down": "AKT1 (AKT serine/threonine kinase 1)", "reagent": 1, "robust z-score, knock-down alone": 0.557}
{"gene knocked down": "ALK (ALK receptor tyrosine kinase)", "reagent": 1, "robust z-score, knock-down alone": 0.486}
{"gene knocked down": "EPHA4 (EPH receptor A4)", "reagent": 1, "robust z-score, knock-down alone": -0.2}
{"gene knocked down": "CDKN1A (cyclin dependent kinase inhibitor 1A)", "reagent": 1, "robust z-score, knock-down alone": 0.585}
